Experimental data taken from publication PMC6722078, “Defects in t^6A tRNA modification due to GON7 and YRDC mutations lead to Galloway-Mowat syndrome” (Nature Communications, 2019).

T1: V5-tagged LAGE3 (stably overexpressed in human podocytes) (human) (UniProt Q14657)
T1 sequence: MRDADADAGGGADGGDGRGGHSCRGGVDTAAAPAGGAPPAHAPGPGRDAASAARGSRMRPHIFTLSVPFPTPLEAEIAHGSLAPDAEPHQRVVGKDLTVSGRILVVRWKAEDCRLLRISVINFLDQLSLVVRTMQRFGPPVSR

T2: 2HA-tagged GON7 (stably overexpressed in human podocytes) (human) (UniProt Q9BXV9)
T2 sequence: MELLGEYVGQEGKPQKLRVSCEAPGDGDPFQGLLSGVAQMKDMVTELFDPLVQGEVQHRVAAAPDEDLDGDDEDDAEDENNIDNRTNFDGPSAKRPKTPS


Legend:
[1] = molecular target: T1, V5-tagged LAGE3 (stably overexpressed in human podocytes) (human); assay: affinity purification with mass spectrometry; immunoprecipitation of 2HA-GON7 or V5-LAGE3 from human podocyte cell lines stably expressing them; control IP versus IP HA or IP V5, three biological replicates
[2] = molecular target: T2, 2HA-tagged GON7 (stably overexpressed in human podocytes) (human); assay: as above

| binding [1] | binding [2] | Molecule |
| --- | --- | --- |
| binds | binds | TPRKB (endogenous, human podocytes) (from UniProt Q9Y3C4 1-175) |
|  | binds | TP53RK (endogenous, human podocytes) (protein, UniProt Q96S44 1-253) MAAARATTPADGEEPAPEAEALAAARERSSRFLSGLELVKQGAEARVFRGRFQGRAAVIKHRFPKGYRHPALEARLGRRRTVQEARALLRCRRAGISAPVVFFVDYASNCLYMEEIEGSVTVRDYIQSTMETEKTPQGLSNLAKTIGQVLARMHDEDLIHGDLTTSNMLLKPPLEQLNIVLIDFGLSFISALPEDKGVDLYVLEKAFLSTHPNTETVFEAFLKSYSTSSKKARPVLKKLDEVRLRGRKRSMVG |

No constants are given. Whether binding was seen depends on the method and setting. Binding seen in cells or lysates may run through a third protein. Here binding means that the protein was enriched with, or labelled near, the bait; the list need not be complete. Tags and fused reporters may be left off the sequences shown.
